Reference: paper PMC10493609 (Frontiers in Immunology, 2023)
Results are given in words; binding and its absence hold for the method and conditions named. Some entries that bind do so weakly or less than the wild type.

Protein sequences, listed by entry. Tags and fused reporters are not part of them. Residues count along the entry.
UniProt Q15116, residues 25-170: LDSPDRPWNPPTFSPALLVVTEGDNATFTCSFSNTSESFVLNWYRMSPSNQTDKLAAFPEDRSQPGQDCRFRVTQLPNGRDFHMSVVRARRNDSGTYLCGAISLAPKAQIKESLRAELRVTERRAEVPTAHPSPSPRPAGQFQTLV
UniProt Q9NZQ7: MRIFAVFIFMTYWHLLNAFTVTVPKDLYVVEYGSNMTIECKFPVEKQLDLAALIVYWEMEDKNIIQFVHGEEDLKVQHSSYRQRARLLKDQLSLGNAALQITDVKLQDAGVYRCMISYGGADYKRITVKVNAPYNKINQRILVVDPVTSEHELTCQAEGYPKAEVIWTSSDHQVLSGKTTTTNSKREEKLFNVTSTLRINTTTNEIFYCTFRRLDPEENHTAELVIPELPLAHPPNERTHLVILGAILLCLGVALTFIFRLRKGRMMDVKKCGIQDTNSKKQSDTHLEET

Key:
[1] = target: PD-1 human recombinant protein (human) (UniProt Q15116); experiment: SPR; Gal-3 (1 µM) over immobilised PD-1 or immobilised PD-L1, with and without the Gal-3 inhibitor GB1211; both purified
[2] = target: PD-L1 human recombinant protein (human) (UniProt Q9NZQ7); experiment: as above

binding [1]: binds | binding [2]: binds
Substance: Human recombinant Galectin-3 (from UniProt P17931 1-250)
